# Source: the supplement of paper PMC8728848
# The other results are listed elsewhere or left out.
# B1: CD23 (Homo sapiens) (protein)
# chain: MELQVSSGFVCNTCPEKWINFQRKCYYFGKGTKQWVHARYACDDMEGQLVSIHSPEEQDFLTKHASHTGSWIGLRNLDLKGEFIWVDGSHVDYSNWAPGEPTSRSQGEDCVMMRGSGRWNDAFCDRKLGAWVCDRLATCTPPASEGSAESMGPDSRPDPDGRLPTPSAPLHS
# Tests used:
# Test in all cases: glycan array binding signal (z-score within array); higher = stronger binding
# Conditions in all cases: glycan notation: IUPAC condensed, linker removed
# [1] = target: Gal(b1-3)[Neu5Ac(b2-6)]GalNAc
# In short: (§1)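 Glycan array binding is given as a within-array Z-score, which can be read as non-binding when negative. The arrays, 3228 of them, came from the Consortium for Functional Glycomics database and were retained only where the protein sequence was available. Z-scores were averaged across arrays of the same protein sequence at different concentrations or buffers and across linkers.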
# [2] = target: Gal(b1-4)GalNAc(a1-3)[Fuc(a1-2)]Gal(b1-4)GlcNAc
# In short: as §1
# [3] = target: Gal(b1-4)GalNAc(b1-3)[Fuc(a1-2)]Gal(b1-4)GlcNAc
# In short: as §1
# [4] = target: Gal(b1-4)Glc
# In short: as §1
# [5] = target: Gal(b1-4)Glc6S
# In short: as §1
# [6] = target: Gal(b1-4)GlcNAc
# In short: as §1
# [7] = target: Gal(b1-4)GlcNAc(b1-2)Man(a1-3)[Gal(b1-4)GlcNAc(b1-2)Man(a1-6)]Man(b1-4)GlcNAc(b1-4)GlcNAc
# In short: as §1
# [8] = target: Gal(b1-4)GlcNAc(b1-3)Gal(b1-3)GlcNAc
# In short: as §1
# [9] = target: Gal(b1-4)GlcNAc(b1-3)Gal(b1-4)Glc
# In short: as §1
# [10] = target: Gal(b1-4)GlcNAc(b1-3)Gal(b1-4)GlcNAc
# In short: as §1
# [11] = target: Gal(b1-4)GlcNAc(b1-3)Gal(b1-4)GlcNAc(b1-3)Gal(b1-4)GlcNAc
# In short: as §1
# [12] = target: Gal(b1-4)GlcNAc(b1-3)Gal(b1-4)[Fuc(a1-3)]GlcNAc(b1-3)Gal(b1-4)[Fuc(a1-3)]GlcNAc
# In short: as §1
# [13] = target: Gal(b1-4)GlcNAc(b1-3)GalNAc
# In short: as §1
# [14] = target: Gal(b1-4)GlcNAc(b1-3)[Gal(b1-4)GlcNAc(b1-6)]GalNAc
# In short: as §1
# [15] = target: Gal(b1-4)GlcNAc(b1-6)Gal(b1-4)GlcNAc(b1-6)GalNAc
# In short: as §1
# [16] = target: Gal(b1-4)GlcNAc(b1-6)GalNAc
# In short: as §1
# [17] = target: Gal(b1-4)GlcNAc(b1-6)[Gal(b1-3)]GalNAc
# In short: as §1
# [18] = target: Gal3S(b1-3)GalNAc
# In short: as §1
# [19] = target: Gal3S(b1-3)GlcNAc
# In short: as §1
# [20] = target: Gal3S(b1-3)[Fuc(a1-4)]GlcNAc
# In short: as §1
# [21] = target: Gal3S(b1-4)Glc
# In short: as §1
# [22] = target: Gal3S(b1-4)Glc6S
# In short: as §1
# [23] = target: Gal3S(b1-4)GlcNAc
# In short: as §1
# [24] = target: Gal3S(b1-4)GlcNAc6S
# In short: as §1
# [25] = target: Gal3S(b1-4)[Fuc(a1-3)]Glc
# In short: as §1
# [26] = target: Gal3S6S(b1-4)GlcNAc
# In short: as §1
# [27] = target: Gal3S6S(b1-4)GlcNAc6S
# In short: as §1
# [28] = target: Gal4S(b1-4)GlcNAc
# In short: as §1
# [29] = target: Gal4S6S(b1-4)GlcNAc
# In short: as §1
# [30] = target: Gal6S(b1-4)Glc
# In short: as §1
# [31] = target: Gal6S(b1-4)Glc6S
# In short: as §1
# [32] = target: Gal6S(b1-4)GlcNAc
# In short: as §1
# [33] = target: GalNAc(a1-3)Gal
# In short: as §1
# [34] = target: GalNAc(a1-3)GalNAc
# In short: as §1
# [35] = target: GalNAc(b1-3)Gal(a1-4)Gal(b1-4)GlcNAc
# In short: as §1
# [36] = target: GalNAc(b1-3)GalNAc
# In short: as §1
# [37] = target: GalNAc(b1-4)GlcNAc
# In short: as §1
binder,measurement,setting,value
B1,glycan array binding signal (z-score),[1],-0.587
same,glycan array binding signal (z-score),[2],-0.172
same,glycan array binding signal (z-score),[3],0.124
same,glycan array binding signal (z-score),[4],-0.405
same,glycan array binding signal (z-score),[5],-0.025
same,glycan array binding signal (z-score),[6],0.145
same,glycan array binding signal (z-score),[7],-0.225
same,glycan array binding signal (z-score),[8],-0.291
same,glycan array binding signal (z-score),[9],-0.334
same,glycan array binding signal (z-score),[10],-0.486
same,glycan array binding signal (z-score),[11],-0.282
same,glycan array binding signal (z-score),[12],0.338
same,glycan array binding signal (z-score),[13],-0.738
same,glycan array binding signal (z-score),[14],0.423
same,glycan array binding signal (z-score),[15],-0.714
same,glycan array binding signal (z-score),[16],-0.348
same,glycan array binding signal (z-score),[17],-0.202
same,glycan array binding signal (z-score),[18],-0.242
same,glycan array binding signal (z-score),[19],0.161
same,glycan array binding signal (z-score),[20],-0.092
same,glycan array binding signal (z-score),[21],-0.171
same,glycan array binding signal (z-score),[22],-0.033
same,glycan array binding signal (z-score),[23],-0.17
same,glycan array binding signal (z-score),[24],0.225
same,glycan array binding signal (z-score),[25],0.023
same,glycan array binding signal (z-score),[26],-0.509
same,glycan array binding signal (z-score),[27],0.475
same,glycan array binding signal (z-score),[28],0.522
same,glycan array binding signal (z-score),[29],0.021
same,glycan array binding signal (z-score),[30],0.073
same,glycan array binding signal (z-score),[31],0.094
same,glycan array binding signal (z-score),[32],0.233
same,glycan array binding signal (z-score),[33],0.781
same,glycan array binding signal (z-score),[34],-0.43
same,glycan array binding signal (z-score),[35],0.119
same,glycan array binding signal (z-score),[36],-0.029
same,glycan array binding signal (z-score),[37],-0.48

# Another view of some results above.
binder | measurement | setting | value
B1 | glycan array binding signal (z-score) | [4] | -0.405
same | glycan array binding signal (z-score) | [29] | 0.021
